Laboratory results published in patent US4871722A, “Synergistic veterinary composition and/or fodder premix and process for preparing same” (priority 1987, dated 1989).
At least one structure is not confirmed: it was looked up by name or label, or the drawing left a doubt.

System: bacterium strains isolated from chickens
Assay: in vitro bacterial growth inhibition over the bacterium strains tested
Type: cell-based
Protocol: The minimum inhibiting concentration (MIC) values of the above compounds and their two- or three-component combinations were determined in phenol-red - glucose broth (product of the Difco Co.) by using the broth-dilution method on the following bacterium strains isolated from chickens:
D: Salmonella typhimurium

COc1cc(NS(=O)(=O)c2ccc(N)cc2)nc(OC)n1 [Sulfadimethoxine, 2,6-dimethoxy-4-sulfanilamidopyrimidine]
part of the separately determined MIC value at which the component is active in the combination of the invention (in the three-component combination, bacterium strains tested): 1/40th to 1/1000th | dose necessary for the in vitro antibacterial effect (single compound): a very high dose
